Results are given in words; binding and its absence hold for the method and conditions named. Binding seen in cells or lysates may run through a third protein. A yes stands for co-enrichment or nearness to the bait. Other partners may have been found. Where a sequence is shown, tags or fusion partners need not be part of it.

Amino acid sequences for entries named in this document (tags omitted). Residues count along the entry.
UniProt D3Z7P3, residues 55-674: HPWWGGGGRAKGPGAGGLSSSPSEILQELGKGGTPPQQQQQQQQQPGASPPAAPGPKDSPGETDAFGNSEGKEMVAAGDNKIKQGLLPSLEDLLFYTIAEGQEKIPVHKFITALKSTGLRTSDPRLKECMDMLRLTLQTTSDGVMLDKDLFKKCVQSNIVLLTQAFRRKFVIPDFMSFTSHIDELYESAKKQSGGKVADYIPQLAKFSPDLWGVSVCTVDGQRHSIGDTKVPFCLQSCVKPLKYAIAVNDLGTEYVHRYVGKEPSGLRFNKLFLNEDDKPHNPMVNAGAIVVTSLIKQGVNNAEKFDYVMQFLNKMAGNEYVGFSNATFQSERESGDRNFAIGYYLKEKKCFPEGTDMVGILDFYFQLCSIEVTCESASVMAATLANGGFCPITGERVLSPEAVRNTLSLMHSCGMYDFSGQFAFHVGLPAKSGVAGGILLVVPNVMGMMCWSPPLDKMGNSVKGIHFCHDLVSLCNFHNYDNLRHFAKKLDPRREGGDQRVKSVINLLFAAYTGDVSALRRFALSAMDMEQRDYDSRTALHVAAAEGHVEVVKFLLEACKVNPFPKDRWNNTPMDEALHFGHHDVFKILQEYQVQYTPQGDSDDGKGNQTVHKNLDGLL

For the test, the target named is T1, chimera of APEX2 fused to the CT of PDZD8 (human) (UniProt Q8NEN9).
T1 sequence: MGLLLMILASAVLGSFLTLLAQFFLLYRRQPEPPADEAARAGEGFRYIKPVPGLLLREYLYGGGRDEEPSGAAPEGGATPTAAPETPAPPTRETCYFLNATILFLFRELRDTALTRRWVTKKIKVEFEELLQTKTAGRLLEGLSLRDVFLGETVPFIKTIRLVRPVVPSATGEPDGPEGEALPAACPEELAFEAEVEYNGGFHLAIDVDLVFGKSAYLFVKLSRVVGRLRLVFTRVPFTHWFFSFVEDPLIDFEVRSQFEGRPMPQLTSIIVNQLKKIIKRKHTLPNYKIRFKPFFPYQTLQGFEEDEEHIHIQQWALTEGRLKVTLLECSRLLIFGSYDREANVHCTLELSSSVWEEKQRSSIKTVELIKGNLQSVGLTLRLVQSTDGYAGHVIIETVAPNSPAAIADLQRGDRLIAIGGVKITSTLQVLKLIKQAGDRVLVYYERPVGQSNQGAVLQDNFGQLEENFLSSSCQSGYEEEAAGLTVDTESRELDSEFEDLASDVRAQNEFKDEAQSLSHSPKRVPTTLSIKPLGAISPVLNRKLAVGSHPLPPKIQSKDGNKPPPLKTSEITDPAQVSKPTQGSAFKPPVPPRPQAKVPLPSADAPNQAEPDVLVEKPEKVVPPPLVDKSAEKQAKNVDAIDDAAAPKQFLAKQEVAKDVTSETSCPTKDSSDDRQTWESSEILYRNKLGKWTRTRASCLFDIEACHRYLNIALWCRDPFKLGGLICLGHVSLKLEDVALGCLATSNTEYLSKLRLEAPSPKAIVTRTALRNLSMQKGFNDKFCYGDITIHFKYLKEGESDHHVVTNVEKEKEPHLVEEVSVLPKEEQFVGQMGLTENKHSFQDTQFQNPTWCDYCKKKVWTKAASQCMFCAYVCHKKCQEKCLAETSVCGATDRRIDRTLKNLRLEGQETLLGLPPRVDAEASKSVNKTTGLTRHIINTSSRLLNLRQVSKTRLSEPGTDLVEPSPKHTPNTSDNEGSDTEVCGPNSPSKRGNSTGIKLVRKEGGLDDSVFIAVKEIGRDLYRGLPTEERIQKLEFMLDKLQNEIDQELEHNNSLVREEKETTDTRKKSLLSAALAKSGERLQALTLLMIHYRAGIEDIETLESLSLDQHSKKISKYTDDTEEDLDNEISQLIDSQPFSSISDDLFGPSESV
Put plainly: proximity labelling; APEX2 labelling in MEFs stably expressing APEX2-PDZD8 (biotinyl tyramide 30 min, 1 mM H2O2 1 min), subcellular fractionation (IMM, matrix), streptavidin beads, blot for GLS1; starved or unstarved cells; GLS1 hardly biotinylated in the matrix fraction.

As to “glutaminase 1 (GLS1; both KGA and GAC), endogenous in MEFs (from UniProt D3Z7P3 55-674) (enzyme)”, the binding entry is on record as “binds”.

For the origin of these results see PMC11442470.
